In the supplement of paper PMC4683952:
The list shows a part of the results. No stated cut-off is given here; in the data, active = 2 or more and inactive = the rest. Most values lie within the scatter of the assay; repeated measurements hardly agree.

These compounds were tested on Lgr5 (MarsCy1-Lgr5-EGFP, U2OS) (assay: cell-surface Lgr5 expression (SCi1 fluorescence, background-subtracted) relative to WT DMSO (fold of DMSO control); higher = more Lgr5 at the plasma membrane). Settings: U2OS MarsCy1-Lgr5-EGFP stable; treatment time: overnight; library: ActiProbe-5K (TimTec); 25 µM.

Row | Structure (SMILES) | cell-surface Lgr5 expression
1 | COc1ccc(NC(=S)SC)cc1OC | inactive: 1.43
2 | CC(C)OC(=O)C(C)Nc1n[nH]c(=O)[nH]c1=O (configuration not stated) | inactive: 0.958
3 | Cn1cccc1/C=N\NC(=O)CCCCCCC(=O)N/N=C/c1cccn1C | inactive: 1.26
4 | N#Cc1c(SCC(=O)Nc2nncs2)sc2c(O)cc(=O)[nH]c12 | inactive: 1.17
5 | S=c1oc(-c2cccs2)nn1CN1CCOCC1 | inactive: 1.11
6 | CCn1cc(/C=C\C(=O)NC(=S)Nc2cnn(C)c2C)cn1 | active: 2.06
7 | CN(C)S(=O)(=O)Nc1ccc(Cl)c(Cl)c1 | inactive: 0.984
8 | CCCCCCCCN1C(=O)CCC1=O | inactive: 1.2
9 | C#CC[N+](C)(C)Cc1c(C)ccc2ccccc12.[Br-] | inactive: 1.15
10 | Cc1nn(C)cc1Nc1nnc(-c2cc(C(F)(F)F)nn2C)s1 | inactive: 0.87
11 | O=C1CC(N2CCc3ccccc32)C(=O)N1c1cc(Cl)cc(Cl)c1 (configuration not stated) | inactive: 1.1
12 | Cc1c(-n2nnc3cnn(C)c3c2=O)cnn1C | inactive: 1.13
13 | OCn1nc(-c2ccc(Cl)cc2)n(Cc2ccccc2)c1=S | inactive: 1.2
14 | CC(C)CC1NC(=S)N(C)C1=O (configuration not stated) | inactive: 1.1
15 | CS(=O)(=O)Nc1ccc(S(=O)(=O)Nc2ncccn2)cc1 | inactive: 0.964
16 | CC(C)N1C(=O)C(C#N)C2(CCNCC2)C(C#N)=C1S (configuration not stated) | inactive: 1.1
17 | O=C(O)/C=C\C(=O)N1CCN(C(=O)/C=C\C(=O)O)CC1 | inactive: 1.12
18 | C1CN(CCN2CCOCC2)CCO1 | inactive: 1.17
19 | N/C(=N/OCc1ccc(Cl)cc1Cl)c1nonc1N | inactive: 0.975
20 | NNC(=O)c1nnn(-c2nonc2N)c1CN1CCOCC1 | inactive: 1.05
21 | O=C1NC(c2cccs2)C(C(=O)c2cccs2)=C1O (configuration not stated) | inactive: 1.32
22 | Cc1nn(C)cc1Br | inactive: 1.07
23 | CC(C)(C)c1c(C(=O)NN)nnn1-c1nonc1N | inactive: 1.22

3 compounds picked at random from those above, as already listed:
Row | Structure (SMILES) | cell-surface Lgr5 expression
16 | CC(C)N1C(=O)C(C#N)C2(CCNCC2)C(C#N)=C1S (configuration not stated) | inactive: 1.1
19 | N/C(=N/OCc1ccc(Cl)cc1Cl)c1nonc1N | inactive: 0.975
11 | O=C1CC(N2CCc3ccccc32)C(=O)N1c1cc(Cl)cc(Cl)c1 (configuration not stated) | inactive: 1.1

(cont.)

Row | Structure (SMILES) | cell-surface Lgr5 expression
24 | CS(=O)(=O)N1CCc2cc(Br)ccc21 | inactive: 1.37
25 | CCOC(=O)C1CCN(S(=O)(=O)N(C)C)CC1 | inactive: 1.07
26 | O=C(O)CCCNS(=O)(=O)c1ccc(Br)s1 | inactive: 1.1
27 | CC(C)CCC[C@@H](C)[C@H]1CC[C@H]2[C@@H]3CCC4CC(O)CCC4(C)[C@@H]3CCC12C (some centres not stated) | inactive: 1.01
28 | CCOC(=O)Cc1csc(NS(=O)(=O)CC23CCC(CC2=O)C3(C)C)n1 (configuration not stated) | inactive: 1.01
29 | Clc1ccc(OCc2nnc3n2N=C(c2ccc4c(c2)OCCO4)CS3)c(Cl)c1 | inactive: 1.03
30 | O=C1c2nn[nH]c2C(=O)c2nn[nH]c21 | inactive: 1.34
31 | O=C1C[C@@H]2[C@@H](CO)[C@H](O)C[C@@H]2O1 | inactive: 1.11
32 | O=[N+]([O-])c1cc(C(F)(F)F)cc([N+](=O)[O-])c1-n1ccnc1 | inactive: 1.78
33 | O=C1/C(=N\c2ccc3ccccc3c2)c2ccccc2N1CN1CCN(c2ccccc2)CC1 | inactive: 1.1
34 | CCC(C1=C(O)CC(C)(C)CC1=O)C1C(=O)CC(C)(C)CC1=O (configuration not stated) | inactive: 1.06
35 | Fc1ccccc1Nc1nc2nonc2nc1Nc1ccccc1F | inactive: 0.958
36 | COc1c2ccoc2nc2c(OC)cccc12 | inactive: 1.11
37 | Cc1[nH]c(C#N)c(C)c1C=O | inactive: 0.946
38 | Cc1cc(C(C)(C)C)c(O)c(C(C)(C)c2cc(C)cc(C(C)(C)C)c2O)c1 | inactive: 1.37
39 | CCOC(=O)c1[nH]c(C)c(CC(C)C)c1C | inactive: 1.38
40 | Cc1cc(O)nc(C(C)C)n1 | inactive: 1.1
41 | N#Cc1sc2nc3c(c(-c4cccnc4)c2c1N)CCC3 | inactive: 1.08
42 | CN1C(=O)/C(=N/NC2=NS(=O)(=O)c3ccccc32)c2ccccc21 | inactive: 1.13
43 | O=C(c1cc(O)ccc1O)c1coc2ccc(O)cc12 | inactive: 1.54
44 | NC(=O)NCC12CC3CC(CC(C3)C1)C2 | inactive: 1.05
45 | Cn1cc(Cl)c(C(=O)O)n1 | inactive: 0.956
46 | CCCc1cc(CN)on1 | inactive: 1.07

Row | Structure (SMILES) | cell-surface Lgr5 expression
47 | O=C(CSc1ncccn1)NC1CCSC1=O (configuration not stated) | inactive: 1.23
48 | O=[N+]([O-])c1ccc(/C=N\c2ccc(Cl)c([N+](=O)[O-])c2)o1 | inactive: 1.91
49 | Br.Nc1ccc(OCC[n+]2ccc(CCS(=O)(=O)[O-])cc2)cc1 | inactive: 1.62
50 | CN1CCN(C(=O)CSc2nc3c(c(C(F)(F)F)c2C#N)CCC3)CC1 | inactive: 1.15
51 | O=C(CCCCCCC(=O)N/N=C/c1ccc([N+](=O)[O-])o1)N/N=C\c1ccc([N+](=O)[O-])o1 | inactive: 1.35
52 | CS(=O)(=O)c1nnnn1-c1cccc2ccccc12 | inactive: 0.767
53 | CS(=O)(=O)Nc1ccccc1F | inactive: 1.12
54 | CN(Cc1cccs1)C(=S)SCc1cccs1 | inactive: 1.42
55 | Nc1nc2c(s1)COc1ccccc1-2 | inactive: 0.923
56 | O=C(/C=C/N1CCCCC1)c1cccs1 | inactive: 1.13
57 | CS(=O)(=O)N1CCN(c2ccc([N+](=O)[O-])cc2Cl)CC1 | inactive: 1.11
58 | COc1ccc2c(c1OC)C(=O)N1C(C(=O)O)CSC21 (configuration not stated) | inactive: 1.65
59 | COc1ccc(OC)c(S(=O)(=O)NCCOC23CC4CC(CC(C4)C2)C3)c1 | inactive: 0.832
60 | Clc1ccc(/C=N\N=c2\[nH]c(-c3ccccc3)cs2)cc1 | inactive: 1.77
61 | CSc1nc(SCC(=O)C(C)C)nc(N)c1C#N | inactive: 1.12
62 | C1CCCCC(NC(C2C(CC=CC2)C(C\C(=C(\Cl)Cl)Cl)=O)=O)C1 (configuration not stated) | inactive: 1.14
63 | CCCCOCC(S)CNC(N)=O (configuration not stated) | inactive: 1.07
64 | Cc1cc(=O)cc(C)n1NC(N)=S | inactive: 0.996
65 | FC(F)(F)c1ccc(/C=N/n2c(S)nnc2-c2ccco2)cc1 | inactive: 1.07
66 | C1(/C2CC3CC(C2)CC1C3)=C\C(=O)N | inactive: 1.35
67 | N#C/C(=C\Nc1ncccc1Cl)C(N)=S | inactive: 1.09
